No constants are given. Whether binding was seen depends on the method and setting. Where a sequence is shown, tags or fusion partners need not be part of it.

We go through one molecule from paper PMC4740771, “Nucleotide-dependent assembly of the peroxisomal receptor export complex” (Scientific Reports, 2016).

This test deals with T1, GST-Pex15p(1-315)His (S. cerevisiae) (UniProt Q08215).
T1 sequence: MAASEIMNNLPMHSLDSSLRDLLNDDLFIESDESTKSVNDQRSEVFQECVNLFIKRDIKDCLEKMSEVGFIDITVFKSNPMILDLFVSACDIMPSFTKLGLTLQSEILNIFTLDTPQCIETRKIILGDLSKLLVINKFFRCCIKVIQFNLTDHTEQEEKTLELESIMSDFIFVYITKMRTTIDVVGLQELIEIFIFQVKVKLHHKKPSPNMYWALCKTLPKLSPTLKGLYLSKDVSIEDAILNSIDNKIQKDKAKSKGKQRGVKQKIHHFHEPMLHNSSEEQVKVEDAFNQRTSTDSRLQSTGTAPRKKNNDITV
As to the kind of experiment: pull-down; GST-Pex15p(1-315)His incubated with purified proteins, loaded on GSH-agarose, eluted with glutathione; 5 mM ATP; Coomassie and immunoblot, signal intensities of load and eluate; both purified. (A western blot detects proteins with antibodies after separation by electrophoresis.)

B1: HisPex1p (protein, UniProt P24004 1-1043)
chain: MTTTKRLKFENLRIQFSNAIVGNFLRLPHSIINVLESTNYAIQEFGIAVHSHNSDIPIVHLGWDGHDSGSSENVVLINPVLATVYDLNQKSPLVDLYIQRYDHTHLATEVYVTPETSDDWEIIDANAMRFQNGEILHQTRIVTPGETLICYLEGIVTKFKIDRVEPSMKSARITDGSLVVVAPKVNKTRLVKAEYGHSNKTILKNGAIQLLKKVILRSTVCKMDFPKDNLFVVYISDGAQLPSQKGYASIVKCSLRQSKKSDSDNKSVGIPSKKIGVFIKCDSQIPENHIALSSHLWDAFFTHPMNGAKIKLEFLQMNQANIISGRNATVNIKYFGKDVPTKSGDQYSKLLGGSLLTNNLILPTEQIIIEIKKGESEQQLCNLNEISNESVQWKVTQMGKEEVKDIIERHLPKHYHVKETGEVSRTSKDEDDFITVNSIKKEMVNYLTSPIIATPAIILDGKQGIGKTRLLKELINEVEKDHHIFVKYADCETLHETSNLDKTQKLIMEWCSFCYWYGPSLIVLDNVEALFGKPQANDGDPSNNGQWDNASKLLNFFINQVTKIFNKDNKRIRVLFSGKQKTQINPLLFDKHFVSETWSLRAPDKHARAKLLEYFFSKNQIMKLNRDLQFSDLSLETEGFSPLDLEIFTEKIFYDLQLERDCDNVVTRELFSKSLSAFTPSALRGVKLTKETNIKWGDIGALANAKDVLLETLEWPTKYEPIFVNCPLRLRSGILLYGYPGCGKTLLASAVAQQCGLNFISVKGPEILNKFIGASEQNIRELFERAQSVKPCILFFDEFDSIAPKRGHDSTGVTDRVVNQLLTQMDGAEGLDGVYILAATSRPDLIDSALLRPGRLDKSVICNIPTESERLDILQAIVNSKDKDTGQKKFALEKNADLKLIAEKTAGFSGADLQGLCYNAYLKSVHRWLSAADQSEVVPGNDNIEYFSINEHGRREENRLRLKTLLQQDVVHETKTSTSAASELTAVVTINDLLEACQETKPSISTSELVKLRGIYDRFQKDRNGEMPNGENSIDIGSRLSLM
In the case of B1, the binding result is reported as “no binding”.
